Experimental data: article doi:10.1101/2025.08.26.672501

The chains behind the UniProt entries cited, without tags or fusion partners.
UniProt P62820: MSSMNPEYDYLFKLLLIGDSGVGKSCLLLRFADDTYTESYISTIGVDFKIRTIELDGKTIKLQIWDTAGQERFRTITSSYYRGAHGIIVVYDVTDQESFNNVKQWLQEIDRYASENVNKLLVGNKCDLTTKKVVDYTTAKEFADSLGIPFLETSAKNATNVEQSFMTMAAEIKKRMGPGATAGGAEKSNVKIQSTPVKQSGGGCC
UniProt P51149: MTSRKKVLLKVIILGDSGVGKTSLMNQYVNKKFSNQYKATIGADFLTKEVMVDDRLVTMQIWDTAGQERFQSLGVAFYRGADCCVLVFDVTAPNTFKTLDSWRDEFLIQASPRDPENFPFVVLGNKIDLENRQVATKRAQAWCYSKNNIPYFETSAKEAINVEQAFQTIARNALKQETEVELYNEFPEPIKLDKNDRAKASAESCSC
UniProt Q9NP72: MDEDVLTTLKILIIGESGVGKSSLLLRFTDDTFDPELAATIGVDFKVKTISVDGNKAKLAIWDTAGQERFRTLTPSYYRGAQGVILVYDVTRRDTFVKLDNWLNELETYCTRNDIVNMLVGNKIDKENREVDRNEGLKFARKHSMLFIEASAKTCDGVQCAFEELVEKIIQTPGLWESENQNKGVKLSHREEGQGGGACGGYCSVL

T1: MBOAT7-EGFP (human) (UniProt Q96N66)
T1 sequence: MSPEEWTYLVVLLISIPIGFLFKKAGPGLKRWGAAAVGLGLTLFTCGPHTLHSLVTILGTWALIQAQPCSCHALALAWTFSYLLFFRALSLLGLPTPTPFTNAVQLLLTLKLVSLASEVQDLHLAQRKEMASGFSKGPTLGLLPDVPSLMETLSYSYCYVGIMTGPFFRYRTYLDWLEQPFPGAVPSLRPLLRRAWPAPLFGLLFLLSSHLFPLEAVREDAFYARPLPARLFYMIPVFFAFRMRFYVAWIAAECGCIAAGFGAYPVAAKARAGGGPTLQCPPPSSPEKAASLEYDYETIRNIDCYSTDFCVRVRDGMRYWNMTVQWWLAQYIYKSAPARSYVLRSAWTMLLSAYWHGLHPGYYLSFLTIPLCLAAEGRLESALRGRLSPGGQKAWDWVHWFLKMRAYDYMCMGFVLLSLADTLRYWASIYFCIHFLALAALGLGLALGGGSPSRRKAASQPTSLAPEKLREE

T2: APEX2-CDS2 fusion protein (UniProt O95674)
T2 sequence: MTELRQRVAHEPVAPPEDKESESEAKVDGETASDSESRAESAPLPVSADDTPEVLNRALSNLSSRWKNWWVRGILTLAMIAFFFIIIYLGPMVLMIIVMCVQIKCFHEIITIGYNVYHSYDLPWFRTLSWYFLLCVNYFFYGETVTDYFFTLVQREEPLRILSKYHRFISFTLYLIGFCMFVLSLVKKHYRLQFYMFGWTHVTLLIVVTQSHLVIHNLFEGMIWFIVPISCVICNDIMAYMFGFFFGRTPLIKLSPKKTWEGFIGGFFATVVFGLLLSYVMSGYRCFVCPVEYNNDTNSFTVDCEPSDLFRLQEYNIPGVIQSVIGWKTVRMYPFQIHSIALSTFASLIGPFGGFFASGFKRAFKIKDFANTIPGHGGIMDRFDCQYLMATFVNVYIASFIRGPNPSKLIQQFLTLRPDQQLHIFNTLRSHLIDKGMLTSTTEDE


Assays:
MBOAT7-EGFP (human) = target: T1, MBOAT7-EGFP (human); experiment: affinity purification with mass spectrometry
[1] = target: T2, APEX2-CDS2 fusion protein; experiment: proximity labelling

| binding [1] | Molecule | binding (MBOAT7-EGFP (human)) |
| --- | --- | --- |
| – | RAB1A (from UniProt P62820 1-205) | binds |
| – | RAB7A (from UniProt P51149 1-207) | binds |
| – | RAB18 (from UniProt Q9NP72 1-206) | binds |
| binds | MBOAT7 (in the CDS2 proximal proteome) (protein, UniProt Q96N66 1-472) MSPEEWTYLVVLLISIPIGFLFKKAGPGLKRWGAAAVGLGLTLFTCGPHTLHSLVTILGTWALIQAQPCSCHALALAWTFSYLLFFRALSLLGLPTPTPFTNAVQLLLTLKLVSLASEVQDLHLAQRKEMASGFSKGPTLGLLPDVPSLMETLSYSYCYVGIMTGPFFRYRTYLDWLEQPFPGAVPSLRPLLRRAWPAPLFGLLFLLSSHLFPLEAVREDAFYARPLPARLFYMIPVFFAFRMRFYVAWIAAECGCIAAGFGAYPVAAKARAGGGPTLQCPPPSSPEKAASLEYDYETIRNIDCYSTDFCVRVRDGMRYWNMTVQWWLAQYIYKSAPARSYVLRSAWTMLLSAYWHGLHPGYYLSFLTIPLCLAAEGRLESALRGRLSPGGQKAWDWVHWFLKMRAYDYMCMGFVLLSLADTLRYWASIYFCIHFLALAALGLGLALGGGSPSRRKAASQPTSLAPEKLREE | – |

No constants are given. Whether binding was seen depends on the method and setting. In cells and extracts the contact can be indirect. A yes stands for co-enrichment or nearness to the bait. Other partners may have been found. Sequences can lack the tags named with a protein.
